No constants are given. Whether binding was seen depends on the method and setting. In cells and extracts the contact can be indirect. Binding calls can cover weak binding; strength is not graded here. Where a sequence is shown, tags or fusion partners need not be part of it.
Molecular target: T1, CRK2-mVenus (Cysteine-rich receptor-like kinase CRK2 fused to mVenus) (Arabidopsis thaliana) (UniProt Q9CAL3)
T1 sequence: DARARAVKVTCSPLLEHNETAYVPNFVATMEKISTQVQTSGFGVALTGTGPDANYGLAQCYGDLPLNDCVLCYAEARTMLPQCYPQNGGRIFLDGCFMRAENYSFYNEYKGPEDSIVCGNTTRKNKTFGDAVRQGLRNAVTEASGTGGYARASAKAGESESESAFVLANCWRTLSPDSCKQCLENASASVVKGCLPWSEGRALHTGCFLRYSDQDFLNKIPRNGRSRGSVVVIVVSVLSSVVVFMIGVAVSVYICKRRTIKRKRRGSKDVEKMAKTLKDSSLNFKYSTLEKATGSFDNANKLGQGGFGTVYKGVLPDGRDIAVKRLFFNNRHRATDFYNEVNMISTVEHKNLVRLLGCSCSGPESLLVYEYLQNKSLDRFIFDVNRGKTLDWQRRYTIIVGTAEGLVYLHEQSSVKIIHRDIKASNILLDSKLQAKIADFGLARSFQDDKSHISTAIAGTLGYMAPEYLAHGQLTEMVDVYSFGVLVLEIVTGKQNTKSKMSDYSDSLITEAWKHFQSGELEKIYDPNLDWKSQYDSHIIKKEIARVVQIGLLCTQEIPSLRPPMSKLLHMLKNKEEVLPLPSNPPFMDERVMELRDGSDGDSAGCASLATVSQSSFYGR
Assay: FRET or BRET

By UniProt entry, the sequences of proteins in these tests, tags left out. Where a name states a change or a piece, a line headed by the entry shows the natural chain unless it says otherwise.
UniProt Q9M8T0: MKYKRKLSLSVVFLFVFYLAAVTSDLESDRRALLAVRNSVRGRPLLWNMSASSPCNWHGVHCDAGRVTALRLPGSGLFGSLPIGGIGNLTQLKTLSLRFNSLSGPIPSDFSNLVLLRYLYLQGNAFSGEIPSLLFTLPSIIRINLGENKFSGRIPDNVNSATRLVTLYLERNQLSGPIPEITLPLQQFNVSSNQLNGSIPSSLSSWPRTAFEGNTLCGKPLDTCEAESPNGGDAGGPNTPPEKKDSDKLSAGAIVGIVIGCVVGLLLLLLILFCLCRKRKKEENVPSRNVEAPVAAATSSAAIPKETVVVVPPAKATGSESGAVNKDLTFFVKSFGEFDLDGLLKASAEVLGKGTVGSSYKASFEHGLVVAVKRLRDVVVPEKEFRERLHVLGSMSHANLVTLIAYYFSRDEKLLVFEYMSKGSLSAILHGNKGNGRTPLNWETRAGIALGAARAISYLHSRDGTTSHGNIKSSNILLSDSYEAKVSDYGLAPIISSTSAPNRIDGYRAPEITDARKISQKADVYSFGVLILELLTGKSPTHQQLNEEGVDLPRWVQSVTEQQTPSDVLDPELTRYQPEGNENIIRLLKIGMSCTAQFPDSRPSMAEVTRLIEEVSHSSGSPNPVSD

- binding: binds
Substance: QSK1-mCherry (Qian Shou kinase 1 fused to mCherry) (from UniProt Q9M8T0) (receptor)

Source: paper doi:10.64898/2025.12.09.692923
